From doi:10.1101/2023.07.13.548819 come the findings set out here.

Protein sequences, listed by entry. Tags and fused reporters are not part of them. Lines headed by an entry give the natural chain unless they say otherwise; changes in a name come on top. Residues count along the entry.
UniProt Q12846, whole entry, looked up, stated change not applied: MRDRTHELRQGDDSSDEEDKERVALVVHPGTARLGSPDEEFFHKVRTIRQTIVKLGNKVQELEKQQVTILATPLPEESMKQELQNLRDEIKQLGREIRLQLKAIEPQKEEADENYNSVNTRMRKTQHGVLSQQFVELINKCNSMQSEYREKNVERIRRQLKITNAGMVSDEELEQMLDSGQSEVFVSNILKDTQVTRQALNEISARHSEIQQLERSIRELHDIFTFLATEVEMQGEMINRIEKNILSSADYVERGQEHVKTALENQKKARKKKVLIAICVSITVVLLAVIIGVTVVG
UniProt P70452, whole entry: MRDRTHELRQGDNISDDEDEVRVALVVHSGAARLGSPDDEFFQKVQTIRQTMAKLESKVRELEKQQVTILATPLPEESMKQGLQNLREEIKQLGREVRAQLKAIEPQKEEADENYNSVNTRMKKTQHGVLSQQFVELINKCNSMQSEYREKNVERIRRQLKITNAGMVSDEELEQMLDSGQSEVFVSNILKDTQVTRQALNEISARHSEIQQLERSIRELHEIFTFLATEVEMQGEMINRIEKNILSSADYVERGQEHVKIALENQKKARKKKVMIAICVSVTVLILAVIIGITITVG
UniProt Q15836, whole entry, looked up, stated change not applied: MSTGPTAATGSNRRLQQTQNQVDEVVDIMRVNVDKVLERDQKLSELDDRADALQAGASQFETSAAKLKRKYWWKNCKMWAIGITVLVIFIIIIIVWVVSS
UniProt Q15836, 1-77: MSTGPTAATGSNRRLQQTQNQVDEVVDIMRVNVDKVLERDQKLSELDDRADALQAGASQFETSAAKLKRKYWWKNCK
UniProt P63024, whole entry, looked up, stated change not applied: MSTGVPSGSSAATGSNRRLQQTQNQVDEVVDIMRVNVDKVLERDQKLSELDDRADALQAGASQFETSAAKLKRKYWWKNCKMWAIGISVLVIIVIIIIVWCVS

No constants are given. Whether binding was seen depends on the method and setting. For part of these data: Binding seen in cells or lysates may run through a third protein. Some entries that bind do so weakly or less than the wild type.

Assay [1] deals with preformed acceptor complex of SNAP23, cytosolic fragment of STX4 and VAMP2(49-96) (UniProt Q12846). The experiment in a line: SDS-resistant SNARE complex formation.
The target of assay [2] is mouse STX4 C-terminally fused with mCitrine (mouse) (UniProt P70452). The experiment in a line: FRET or BRET. In general terms: In BRET a luciferase serves as donor, and the signal depends on an acceptor being close.
For assay [3], the target named is cytosolic fragment of human STX4 (residues 1-271 with 272C) (human) (UniProt Q12846). Nature of the assay: SEC.

Turning to “cytosolic fragment of human VAMP3 S44A (residues 1-77) (from UniProt Q15836 1-77) (domain or fragment)”, the binding result in assay [1] is listed as “binds”.
As to “cytosolic fragment of human VAMP3 S44E (residues 1-77) (from UniProt Q15836 1-77) (domain or fragment)”, the binding entry in assay [1] is on record as “binds”.
For the molecule “cytosolic fragment of human VAMP3 WT (residues 1-77) (from UniProt Q15836 1-77) (domain or fragment)”, the binding entry in assay [1] is on record as “binds”.
In the case of “mouse VAMP3 S48A (phosphodead) C-terminally fused with mCherry (from UniProt P63024 1-103)”, the binding result in assay [2] is given as “binds”.
On to “mouse VAMP3 S48E (phosphomimetic) C-terminally fused with mCherry (from UniProt P63024 1-103)”, for which the binding result in assay [2] is given as “binds”.

B1: SNAP23 (protein, UniProt O00161 1-211)
chain: MDNLSSEEIQQRAHQITDESLESTRRILGLAIESQDAGIKTITMLDEQKEQLNRIEEGLDQINKDMRETEKTLTELNKCCGLCVCPCNRTKNFESGKAYKTTWGDGGENSPCNVVSKQPGPVTNGQLQQPTTGAASGGYIKRITNDAREDEMEENLTQVGSILGNLKDMALNIGNEIDAQNPQIKRITDKADTNRDRIDIANARAKKLIDS
In the case of B1, the binding result in assay [3] was “binds”.
